Assay results published in patent US8524231.
These are yes or no findings as the source states them, for the method shown. Some results given as binding are weak or reduced against the parent protein; the word gives no strength. Sequences can lack the tags named with a protein.

Protein sequences, listed by entry. Tags and fused reporters are not part of them. Residues count along the entry.
UniProt P01584, residues 117-269: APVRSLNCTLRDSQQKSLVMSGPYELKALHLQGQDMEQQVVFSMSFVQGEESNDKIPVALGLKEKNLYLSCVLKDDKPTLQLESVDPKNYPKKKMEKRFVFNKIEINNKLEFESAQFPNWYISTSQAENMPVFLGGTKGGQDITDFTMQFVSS

Target: biotinylated human IL-1Beta (human) (UniProt P01584)
Assay: phage ELISA: biotinylated IL-1Beta on neutravidin, crude phage, anti-M13-HRP

B1: safe variant 1F2 (phage expressing gene3-Fab fusion) (Fab, V domains shown)
VH: EVQLLESGGGLVQPGGSLRLSCAASGFTFSTYAMSWVRQAPGKGPEWVSGINTGGGSTGYADSVKGRFTISRDNSKNTLYLQMNSLRPEDTAVYYCAKDWMATTPWGQGTQVTVSS
VL: QTVVTQEPSFSVSPGGTVTLTCGLSSGSVTTNNYPGWFQQTPGQAPRTLIYNTNNRHSGVPSRFSGSILGNKAALTITGAQADDESDYYCALYMSSGSNNAVFGGGTKLTVLG
  binding: binds
